Laboratory results as given in PMC6468040.
No constants are given. Whether binding was seen depends on the method and setting. In cells and extracts the contact can be indirect. Some entries that bind do so weakly or less than the wild type. Sequences can lack the tags named with a protein.

By UniProt entry, the sequences of proteins in these tests, tags left out.
UniProt Q13131: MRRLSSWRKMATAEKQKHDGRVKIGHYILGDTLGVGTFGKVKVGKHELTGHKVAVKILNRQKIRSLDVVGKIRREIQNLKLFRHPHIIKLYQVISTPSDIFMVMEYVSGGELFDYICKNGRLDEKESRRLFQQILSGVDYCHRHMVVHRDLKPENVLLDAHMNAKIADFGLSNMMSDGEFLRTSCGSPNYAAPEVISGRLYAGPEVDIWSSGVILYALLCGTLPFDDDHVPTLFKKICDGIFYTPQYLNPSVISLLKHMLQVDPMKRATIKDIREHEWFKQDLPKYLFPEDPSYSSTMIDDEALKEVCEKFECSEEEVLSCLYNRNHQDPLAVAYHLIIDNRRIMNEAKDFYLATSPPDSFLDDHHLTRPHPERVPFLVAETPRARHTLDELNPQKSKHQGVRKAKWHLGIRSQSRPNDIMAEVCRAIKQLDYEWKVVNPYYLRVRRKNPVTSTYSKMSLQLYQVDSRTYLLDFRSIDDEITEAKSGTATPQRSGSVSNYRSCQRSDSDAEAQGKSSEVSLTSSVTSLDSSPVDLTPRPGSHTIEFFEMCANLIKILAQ
UniProt P54619: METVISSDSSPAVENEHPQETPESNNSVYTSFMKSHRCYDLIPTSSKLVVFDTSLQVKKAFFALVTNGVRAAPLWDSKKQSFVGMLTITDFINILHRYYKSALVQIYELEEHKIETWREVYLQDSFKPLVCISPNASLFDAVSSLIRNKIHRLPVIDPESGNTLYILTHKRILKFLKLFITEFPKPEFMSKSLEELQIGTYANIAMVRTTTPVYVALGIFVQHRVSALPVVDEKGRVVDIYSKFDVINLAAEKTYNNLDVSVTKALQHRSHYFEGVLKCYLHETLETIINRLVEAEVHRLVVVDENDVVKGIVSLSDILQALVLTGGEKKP

T1: GST-tagged PLIN3 (UniProt O60664)
T1 sequence: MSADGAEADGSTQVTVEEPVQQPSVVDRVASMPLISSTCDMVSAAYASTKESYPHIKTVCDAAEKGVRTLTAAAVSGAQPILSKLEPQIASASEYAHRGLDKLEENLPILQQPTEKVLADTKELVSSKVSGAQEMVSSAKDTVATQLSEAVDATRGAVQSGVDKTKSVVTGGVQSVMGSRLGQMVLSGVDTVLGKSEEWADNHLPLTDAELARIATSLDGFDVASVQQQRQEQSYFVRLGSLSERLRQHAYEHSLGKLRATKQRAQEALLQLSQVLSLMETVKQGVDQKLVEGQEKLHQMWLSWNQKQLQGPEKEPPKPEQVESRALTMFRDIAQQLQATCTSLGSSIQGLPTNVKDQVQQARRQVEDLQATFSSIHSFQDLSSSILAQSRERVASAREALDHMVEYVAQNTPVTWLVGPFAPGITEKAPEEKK

B1: YFPc-tagged PLIN3 (protein, UniProt O60664 1-434)
chain: T1 sequence
B2: YFPc-tagged PLIN4 (protein, UniProt Q96Q06 1-1371)
chain: MSAPDEGRRDPPKPKGKTLGSFFGSLPGFSSARNLVANAHSSARARPAADPTGAPAAEAAQPQAQVAAHPEQTAPWTEKELQPSEKMVSGAKDLVCSKMSRAKDAVSSGVASVVDVAKGVVQGGLDTTRSALTGTKEVVSSGVTGAMDMAKGAVQGGLDTSKAVLTGTKDTVSTGLTGAVNVAKGTVQAGVDTTKTVLTGTKDTVTTGVMGAVNLAKGTVQTGVETSKAVLTGTKDAVSTGLTGAVNVARGSIQTGVDTSKTVLTGTKDTVCSGVTGAMNVAKGTIQTGVDTSKTVLTGTKDTVCSGVTGAMNVAKGTIQTGVDTSKTVLTGTKDTVCSGVTGAMNVAKGTIQTGVDTTKTVLTGTKNTVCSGVTGAVNLAKEAIQGGLDTTKSMVMGTKDTMSTGLTGAANVAKGAMQTGLNTTQNIATGTKDTVCSGVTGAMNLARGTIQTGVDTTKIVLTGTKDTVCSGVTGAANVAKGAVQGGLDTTKSVLTGTKDAVSTGLTGAVNVAKGTVQTGVDTTKTVLTGTKDTVCSGVTSAVNVAKGAVQGGLDTTKSVVIGTKDTMSTGLTGAANVAKGAVQTGVDTAKTVLTGTKDTVTTGLVGAVNVAKGTVQTGMDTTKTVLTGTKDTIYSGVTSAVNVAKGAVQTGLKTTQNIATGTKNTFGSGVTSAVNVAKGAAQTGVDTAKTVLTGTKDTVTTGLMGAVNVAKGTVQTSVDTTKTVLTGTKDTVCSGVTGAANVAKGAIQGGLDTTKSVLTGTKDAVSTGLTGAVKLAKGTVQTGMDTTKTVLTGTKDAVCSGVTGAANVAKGAVQMGVDTAKTVLTGTKDTVCSGVTGAANVAKGAVQTGLKTTQNIATGTKNTLGSGVTGAAKVAKGAVQGGLDTTKSVLTGTKDAVSTGLTGAVNLAKGTVQTGVDTSKTVLTGTKDTVCSGVTGAVNVAKGTVQTGVDTAKTVLSGAKDAVTTGVTGAVNVAKGTVQTGVDASKAVLMGTKDTVFSGVTGAMSMAKGAVQGGLDTTKTVLTGTKDAVSAGLMGSGNVATGATHTGLSTFQNWLPSTPATSWGGLTSSRTTDNGGEQTALSPQEAPFSGISTPPDVLSVGPEPAWEAAATTKGLATDVATFTQGAAPGREDTGLLATTHGPEEAPRLAMLQNELEGLGDIFHPMNAEEQAQLAASQPGPKVLSAEQGSYFVRLGDLGPSFRQRAFEHAVSHLQHGQFQARDTLAQLQDCFRLIEKAQQAPEGQPRLDQGSGASAEDAAVQEERDAGVLSRVCGLLRQLHTAYSGLVSSLQGLPAELQQPVGRARHSLCELYGIVASAGSVEELPAERLVQSREGVHQAWQGLEQLLEGLQHNPPLSWLVGPFALPAGGQ
B3: YFPc-tagged PLIN5 (protein, UniProt Q00G26 1-463)
chain: MSEEEAAQIPRSSVWEQDQQNVVQRVVALPLVRATCTAVCDVYSAAKDRHPLLGSACRLAENCVCGLTTRALDHAQPLLEHLQPQLATMNSLACRGLDKLEEKLPFLQQPSETVVTSAKDVVASSVTGVVDLARRGRRWSVELKRSVSHAVDVVLEKSEELVDHFLPMTEEELAALAAEAEGPEVGSVEDQRRQQGYFVRLGSLSARIRHLAYEHSVGKLRQSKHRAQDTLAQLQETLELIDHMQCGVTPTAPACPGKVHELWGEWGQRPPESRRRSQAELETLVLSRSLTQELQGTVEALESSVRGLPAGAQEKVAEVRRSVDALQTAFADARCFRDVPAAALAEGRGRVAHAHACVDELLELVVQAVPLPWLVGPFAPILVERPEPLPDLADLVDEVIGGPDPRWAHLDWPAQQRAWEAEHRDGSGNGDGDRMGVAGDICEQEPETPSCPVKHTLMPELDF

Tests used:
GST-tagged PLIN3 = biological target: T1, GST-tagged PLIN3; experiment: co-IP; 293T cells co-expressing GST-tagged PLIN3 with LKB1, AMPKα1, AMPKβ2 and AMPKγ1; immunoprecipitation with anti-GST antibodies, western blot with Flag antibodies
YFPn-tagged AMPKα1 = YFPn-tagged AMPKα1 (UniProt Q13131); experiment: split reporter; BiFC with halves of Venus YFP: YFPn-AMPKα1 and YFPc-perilipins stably expressed in HTC75 cells; fluorescence detected by flow cytometer; YFPn-AMPKα1 alone as negative control

Row | Molecule | binding (GST-tagged PLIN3) | binding (YFPn-tagged AMPKα1)
1 | AMPKγ1 (detected with Flag antibodies) (from UniProt P54619 1-331) | binds | 
2 | B1 |  | binds
3 | B2 |  | no binding
4 | B3 |  | no binding
